Some of the results follow. Small differences around the control level are noise.

Protein sequences, listed by entry. Tags and fused reporters are not part of them. Lines headed by an entry give the natural chain unless they say otherwise; changes in a name come on top.
UniProt Q9BWT7: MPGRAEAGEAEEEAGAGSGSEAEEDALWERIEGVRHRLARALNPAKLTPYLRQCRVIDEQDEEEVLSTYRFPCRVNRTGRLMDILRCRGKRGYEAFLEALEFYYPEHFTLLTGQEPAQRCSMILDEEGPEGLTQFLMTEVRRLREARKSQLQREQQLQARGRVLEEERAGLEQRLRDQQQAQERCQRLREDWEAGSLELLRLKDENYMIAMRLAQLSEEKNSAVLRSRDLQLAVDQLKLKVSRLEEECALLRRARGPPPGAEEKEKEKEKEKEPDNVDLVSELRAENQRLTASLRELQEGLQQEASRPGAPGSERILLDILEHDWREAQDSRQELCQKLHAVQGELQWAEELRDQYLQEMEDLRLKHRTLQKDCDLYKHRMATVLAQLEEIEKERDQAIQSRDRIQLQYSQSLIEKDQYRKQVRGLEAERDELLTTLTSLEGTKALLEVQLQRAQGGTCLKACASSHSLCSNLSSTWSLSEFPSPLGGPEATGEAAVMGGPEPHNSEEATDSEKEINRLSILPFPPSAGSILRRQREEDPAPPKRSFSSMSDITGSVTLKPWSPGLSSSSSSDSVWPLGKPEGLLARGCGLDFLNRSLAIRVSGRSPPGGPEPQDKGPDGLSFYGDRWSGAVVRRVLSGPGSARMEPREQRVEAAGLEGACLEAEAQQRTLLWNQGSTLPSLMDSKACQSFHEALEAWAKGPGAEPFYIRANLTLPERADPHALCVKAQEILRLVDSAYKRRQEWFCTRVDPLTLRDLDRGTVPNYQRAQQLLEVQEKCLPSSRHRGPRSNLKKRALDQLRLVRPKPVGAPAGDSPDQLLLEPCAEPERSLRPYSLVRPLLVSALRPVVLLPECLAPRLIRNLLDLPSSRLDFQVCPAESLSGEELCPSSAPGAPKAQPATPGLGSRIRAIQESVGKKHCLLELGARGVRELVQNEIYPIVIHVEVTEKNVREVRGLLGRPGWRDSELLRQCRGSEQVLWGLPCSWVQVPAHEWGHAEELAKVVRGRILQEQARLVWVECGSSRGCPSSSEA
UniProt Q9BXL7: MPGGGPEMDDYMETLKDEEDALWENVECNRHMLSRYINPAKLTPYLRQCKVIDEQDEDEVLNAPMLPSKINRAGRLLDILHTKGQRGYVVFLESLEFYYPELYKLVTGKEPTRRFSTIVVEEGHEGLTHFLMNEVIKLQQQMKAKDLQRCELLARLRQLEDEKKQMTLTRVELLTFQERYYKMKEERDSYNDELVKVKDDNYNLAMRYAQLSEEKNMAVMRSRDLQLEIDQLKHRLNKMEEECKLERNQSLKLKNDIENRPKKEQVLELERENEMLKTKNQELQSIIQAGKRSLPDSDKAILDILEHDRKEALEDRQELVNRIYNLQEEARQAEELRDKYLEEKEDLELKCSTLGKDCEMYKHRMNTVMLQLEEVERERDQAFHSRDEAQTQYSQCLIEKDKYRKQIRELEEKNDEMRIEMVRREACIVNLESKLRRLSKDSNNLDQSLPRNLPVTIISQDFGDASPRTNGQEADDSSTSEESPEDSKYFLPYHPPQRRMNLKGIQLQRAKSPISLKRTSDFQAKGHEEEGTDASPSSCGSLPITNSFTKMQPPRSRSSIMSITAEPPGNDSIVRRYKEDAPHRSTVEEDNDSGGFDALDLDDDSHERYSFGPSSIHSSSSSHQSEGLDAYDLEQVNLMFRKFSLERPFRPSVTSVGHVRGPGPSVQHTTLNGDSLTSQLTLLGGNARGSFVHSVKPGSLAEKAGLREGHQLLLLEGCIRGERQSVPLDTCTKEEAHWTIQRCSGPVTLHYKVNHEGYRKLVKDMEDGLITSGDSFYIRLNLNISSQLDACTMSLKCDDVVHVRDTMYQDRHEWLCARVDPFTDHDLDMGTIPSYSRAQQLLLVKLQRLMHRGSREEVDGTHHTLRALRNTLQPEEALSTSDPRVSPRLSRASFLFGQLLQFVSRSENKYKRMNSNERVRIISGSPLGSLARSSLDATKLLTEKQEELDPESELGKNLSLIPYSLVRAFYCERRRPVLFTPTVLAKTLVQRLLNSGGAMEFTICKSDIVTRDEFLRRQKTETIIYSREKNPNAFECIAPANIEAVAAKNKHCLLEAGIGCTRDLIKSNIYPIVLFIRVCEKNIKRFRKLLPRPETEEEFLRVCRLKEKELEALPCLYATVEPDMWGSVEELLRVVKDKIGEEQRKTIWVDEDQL
UniProt Q9C0F3: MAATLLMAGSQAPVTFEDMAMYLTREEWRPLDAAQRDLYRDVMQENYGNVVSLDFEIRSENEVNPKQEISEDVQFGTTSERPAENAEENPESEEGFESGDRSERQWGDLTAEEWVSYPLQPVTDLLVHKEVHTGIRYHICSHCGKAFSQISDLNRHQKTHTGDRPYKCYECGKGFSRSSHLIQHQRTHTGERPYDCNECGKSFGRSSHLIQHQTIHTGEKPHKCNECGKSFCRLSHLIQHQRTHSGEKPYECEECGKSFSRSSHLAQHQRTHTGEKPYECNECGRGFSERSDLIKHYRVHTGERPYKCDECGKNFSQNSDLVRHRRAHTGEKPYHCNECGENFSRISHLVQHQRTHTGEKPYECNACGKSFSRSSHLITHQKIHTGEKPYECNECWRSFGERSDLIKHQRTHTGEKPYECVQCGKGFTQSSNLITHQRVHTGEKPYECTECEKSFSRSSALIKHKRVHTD
UniProt Q9H223: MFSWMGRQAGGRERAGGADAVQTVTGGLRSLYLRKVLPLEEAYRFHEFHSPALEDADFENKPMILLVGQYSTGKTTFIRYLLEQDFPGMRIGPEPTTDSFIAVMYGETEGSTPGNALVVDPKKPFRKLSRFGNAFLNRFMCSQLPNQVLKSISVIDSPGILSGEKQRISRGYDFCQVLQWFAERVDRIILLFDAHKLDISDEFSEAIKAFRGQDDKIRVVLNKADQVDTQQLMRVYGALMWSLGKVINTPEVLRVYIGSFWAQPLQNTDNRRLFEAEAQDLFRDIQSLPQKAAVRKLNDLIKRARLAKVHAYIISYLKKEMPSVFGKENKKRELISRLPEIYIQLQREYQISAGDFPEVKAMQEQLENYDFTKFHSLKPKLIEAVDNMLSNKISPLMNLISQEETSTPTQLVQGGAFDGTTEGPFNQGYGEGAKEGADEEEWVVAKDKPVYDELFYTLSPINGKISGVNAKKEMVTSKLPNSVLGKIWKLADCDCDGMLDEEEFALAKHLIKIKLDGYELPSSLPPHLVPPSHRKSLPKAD
UniProt Q9BYE2: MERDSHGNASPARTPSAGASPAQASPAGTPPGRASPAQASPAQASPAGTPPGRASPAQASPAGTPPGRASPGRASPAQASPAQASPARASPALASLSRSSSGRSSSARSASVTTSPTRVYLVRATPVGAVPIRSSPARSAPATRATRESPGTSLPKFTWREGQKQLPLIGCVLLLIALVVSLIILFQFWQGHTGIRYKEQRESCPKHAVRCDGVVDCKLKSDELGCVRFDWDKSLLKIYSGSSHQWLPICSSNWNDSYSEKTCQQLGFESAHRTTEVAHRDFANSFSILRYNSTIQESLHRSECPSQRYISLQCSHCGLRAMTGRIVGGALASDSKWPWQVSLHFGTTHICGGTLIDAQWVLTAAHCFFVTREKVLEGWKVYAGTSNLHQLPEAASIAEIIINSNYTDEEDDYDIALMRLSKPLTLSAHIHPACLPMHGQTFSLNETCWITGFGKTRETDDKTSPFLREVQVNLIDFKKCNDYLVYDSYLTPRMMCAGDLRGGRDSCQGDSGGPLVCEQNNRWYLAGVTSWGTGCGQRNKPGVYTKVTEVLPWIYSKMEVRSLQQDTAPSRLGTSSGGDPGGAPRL
UniProt Q9BXC9: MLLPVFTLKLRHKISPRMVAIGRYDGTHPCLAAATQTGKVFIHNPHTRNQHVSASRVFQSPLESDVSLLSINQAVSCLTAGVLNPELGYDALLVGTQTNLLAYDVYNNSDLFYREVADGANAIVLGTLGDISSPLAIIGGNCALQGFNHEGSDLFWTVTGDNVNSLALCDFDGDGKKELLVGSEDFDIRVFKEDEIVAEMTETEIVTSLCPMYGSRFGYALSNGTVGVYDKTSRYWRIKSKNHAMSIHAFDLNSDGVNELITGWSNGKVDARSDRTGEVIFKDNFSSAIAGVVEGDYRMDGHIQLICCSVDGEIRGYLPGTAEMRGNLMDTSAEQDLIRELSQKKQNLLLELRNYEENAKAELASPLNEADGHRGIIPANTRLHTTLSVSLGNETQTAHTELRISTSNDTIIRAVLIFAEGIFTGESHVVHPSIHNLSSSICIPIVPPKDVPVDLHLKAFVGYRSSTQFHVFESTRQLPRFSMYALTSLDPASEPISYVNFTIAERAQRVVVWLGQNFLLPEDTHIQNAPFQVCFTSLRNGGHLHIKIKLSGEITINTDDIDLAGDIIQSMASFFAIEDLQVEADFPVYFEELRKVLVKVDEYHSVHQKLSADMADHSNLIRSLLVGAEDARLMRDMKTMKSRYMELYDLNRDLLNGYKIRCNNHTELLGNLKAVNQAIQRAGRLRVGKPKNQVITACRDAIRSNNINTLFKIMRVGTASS
UniProt Q9BWU0: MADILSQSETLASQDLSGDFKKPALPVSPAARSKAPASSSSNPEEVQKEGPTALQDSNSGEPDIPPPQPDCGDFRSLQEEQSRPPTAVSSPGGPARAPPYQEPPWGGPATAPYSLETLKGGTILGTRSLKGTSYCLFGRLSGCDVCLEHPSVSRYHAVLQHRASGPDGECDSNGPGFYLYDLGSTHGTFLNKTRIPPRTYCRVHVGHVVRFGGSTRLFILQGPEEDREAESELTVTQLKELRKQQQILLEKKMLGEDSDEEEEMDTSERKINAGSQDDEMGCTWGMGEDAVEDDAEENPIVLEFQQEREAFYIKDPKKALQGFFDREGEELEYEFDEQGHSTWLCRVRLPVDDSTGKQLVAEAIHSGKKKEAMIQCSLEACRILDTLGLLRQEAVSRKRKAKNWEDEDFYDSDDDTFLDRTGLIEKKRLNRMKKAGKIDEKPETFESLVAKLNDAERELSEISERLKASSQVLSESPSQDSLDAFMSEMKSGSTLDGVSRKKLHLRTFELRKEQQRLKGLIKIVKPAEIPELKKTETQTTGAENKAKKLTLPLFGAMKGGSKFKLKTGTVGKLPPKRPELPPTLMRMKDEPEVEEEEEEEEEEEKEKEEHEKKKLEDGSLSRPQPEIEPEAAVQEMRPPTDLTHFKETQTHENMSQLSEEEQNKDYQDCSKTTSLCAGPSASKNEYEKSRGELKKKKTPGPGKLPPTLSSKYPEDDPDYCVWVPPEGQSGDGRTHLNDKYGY
UniProt Q9H160: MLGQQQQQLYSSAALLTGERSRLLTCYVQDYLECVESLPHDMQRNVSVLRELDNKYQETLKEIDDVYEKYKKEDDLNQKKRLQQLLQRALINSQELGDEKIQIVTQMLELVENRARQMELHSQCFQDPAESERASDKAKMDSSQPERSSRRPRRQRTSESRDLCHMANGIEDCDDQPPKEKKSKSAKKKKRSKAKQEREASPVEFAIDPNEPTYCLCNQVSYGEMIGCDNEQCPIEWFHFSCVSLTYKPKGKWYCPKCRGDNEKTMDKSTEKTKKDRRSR
UniProt Q9BZ67: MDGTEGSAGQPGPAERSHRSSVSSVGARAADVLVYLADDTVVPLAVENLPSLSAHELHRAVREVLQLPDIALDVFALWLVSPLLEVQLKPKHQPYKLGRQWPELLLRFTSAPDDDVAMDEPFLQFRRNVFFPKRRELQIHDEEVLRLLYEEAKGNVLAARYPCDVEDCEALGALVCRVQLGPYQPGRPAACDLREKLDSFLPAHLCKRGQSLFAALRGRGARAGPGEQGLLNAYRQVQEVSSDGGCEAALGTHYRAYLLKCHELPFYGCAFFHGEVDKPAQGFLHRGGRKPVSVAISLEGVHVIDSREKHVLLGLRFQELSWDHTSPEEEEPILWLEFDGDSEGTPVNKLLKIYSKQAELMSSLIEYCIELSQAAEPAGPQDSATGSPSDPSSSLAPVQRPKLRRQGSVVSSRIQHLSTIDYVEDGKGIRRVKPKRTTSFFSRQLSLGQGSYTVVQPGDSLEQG

Compound in the assay: CN[C@@H]1C[C@H]2O[C@@](C)([C@@H]1OC)n1c3ccccc3c3c4c(c5c6ccccc6n2c5c31)C(=O)NC4 [staurosporine]
Description: log2 fold change of tryptic peptide abundance, ligand vs vehicle (limited proteolysis) (log2 ratio); higher = more trypsin-susceptible (destabilized). To be noted: ligand concentration: 20 uM; sample: K562 cleared lysate; digestion: 4 min, 22 C (HT-PELSA RT4min, Orbitrap Astral).

For “UniProt Q9BWT7 (peptide sequence: ILLDILEHDWR, peptide start residue: 316)”, the log2 fold change was -0.0993.
Regarding “CARD11 (peptide sequence: TETIIYSR, peptide start residue: 1020) (UniProt Q9BXL7)”, the log2 fold change is -0.672.
To “UniProt Q9C0F3 (peptide sequence: VHTGEKPYECTECEK, peptide start residue: 439)” belongs -1.18; to “UniProt Q9C029 (peptide sequence: QLAAVATLLR, peptide start residue: 95)”, 0.318.
Turning to “EHD4 (peptide sequence: VINTPEVLR, peptide start residue: 246) (UniProt Q9H223)”, the log2 fold change worked out at 0.355.
Take “UniProt Q9BYE2 (peptide sequence: NKPGVYTK, peptide start residue: 224)”: the log2 fold change is 0.0365.
Consider “UniProt Q9BXC9 (peptide sequence: SLLVGAEDAR, peptide start residue: 623)”, for which the log2 fold change is 0.498.
Take “SLC4A1AP (peptide sequence: LPPKRPELPPTLMR, peptide start residue: 627) (UniProt Q9BWU0)”: the log2 fold change was -0.675.
On to “ING2 (peptide sequence: DLCHMANGIEDCDDQPPKEKK, peptide start residue: 162) (UniProt Q9H160)”, for which the log2 fold change amounted to 0.916.
As for “NLRP1 (peptide sequence: AASHVAQANLK, peptide start residue: 1020) (UniProt Q9C000)”, the log2 fold change was -0.371.
“FRMD8 (peptide sequence: GQSLFAALR, peptide start residue: 209) (UniProt Q9BZ67)”: the log2 fold change was determined as 0.303.

For the origin of these results see the supplement of paper PMC12819154, “High-throughput peptide-centric local stability assay extends protein–ligand identification to membrane proteins, tissues and bacteria” (Nature Structural & Molecular Biology, 2025).
